Reference: publication PMC12700555
No constants are given. Whether binding was seen depends on the method and setting. In cells and extracts the contact can be indirect. Here binding means that the protein was enriched with, or labelled near, the bait; the list need not be complete.

Amino acid sequences for entries named in this document (tags omitted).
UniProt O95235: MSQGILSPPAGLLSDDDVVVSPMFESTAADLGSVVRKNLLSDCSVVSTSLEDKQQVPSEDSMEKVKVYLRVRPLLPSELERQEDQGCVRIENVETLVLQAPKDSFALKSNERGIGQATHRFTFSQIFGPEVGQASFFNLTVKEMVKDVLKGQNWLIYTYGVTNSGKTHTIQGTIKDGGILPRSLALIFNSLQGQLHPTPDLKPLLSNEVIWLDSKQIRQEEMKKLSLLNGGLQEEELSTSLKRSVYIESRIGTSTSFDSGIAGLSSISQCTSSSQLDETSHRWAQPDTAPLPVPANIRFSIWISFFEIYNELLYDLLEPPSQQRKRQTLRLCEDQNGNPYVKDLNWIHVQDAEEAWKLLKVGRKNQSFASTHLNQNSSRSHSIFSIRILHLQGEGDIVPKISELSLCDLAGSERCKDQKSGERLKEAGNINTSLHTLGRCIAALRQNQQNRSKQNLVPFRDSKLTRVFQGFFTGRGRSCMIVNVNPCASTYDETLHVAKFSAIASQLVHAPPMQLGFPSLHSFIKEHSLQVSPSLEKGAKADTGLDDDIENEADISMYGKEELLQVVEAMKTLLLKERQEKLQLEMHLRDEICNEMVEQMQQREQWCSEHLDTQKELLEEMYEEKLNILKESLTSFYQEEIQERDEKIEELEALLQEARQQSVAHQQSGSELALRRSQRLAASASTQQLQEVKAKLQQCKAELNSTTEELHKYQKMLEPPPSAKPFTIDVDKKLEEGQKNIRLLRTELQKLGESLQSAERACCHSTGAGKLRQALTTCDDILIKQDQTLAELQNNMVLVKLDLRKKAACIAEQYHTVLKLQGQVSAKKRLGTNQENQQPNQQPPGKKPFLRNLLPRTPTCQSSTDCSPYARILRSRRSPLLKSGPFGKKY
UniProt P51532: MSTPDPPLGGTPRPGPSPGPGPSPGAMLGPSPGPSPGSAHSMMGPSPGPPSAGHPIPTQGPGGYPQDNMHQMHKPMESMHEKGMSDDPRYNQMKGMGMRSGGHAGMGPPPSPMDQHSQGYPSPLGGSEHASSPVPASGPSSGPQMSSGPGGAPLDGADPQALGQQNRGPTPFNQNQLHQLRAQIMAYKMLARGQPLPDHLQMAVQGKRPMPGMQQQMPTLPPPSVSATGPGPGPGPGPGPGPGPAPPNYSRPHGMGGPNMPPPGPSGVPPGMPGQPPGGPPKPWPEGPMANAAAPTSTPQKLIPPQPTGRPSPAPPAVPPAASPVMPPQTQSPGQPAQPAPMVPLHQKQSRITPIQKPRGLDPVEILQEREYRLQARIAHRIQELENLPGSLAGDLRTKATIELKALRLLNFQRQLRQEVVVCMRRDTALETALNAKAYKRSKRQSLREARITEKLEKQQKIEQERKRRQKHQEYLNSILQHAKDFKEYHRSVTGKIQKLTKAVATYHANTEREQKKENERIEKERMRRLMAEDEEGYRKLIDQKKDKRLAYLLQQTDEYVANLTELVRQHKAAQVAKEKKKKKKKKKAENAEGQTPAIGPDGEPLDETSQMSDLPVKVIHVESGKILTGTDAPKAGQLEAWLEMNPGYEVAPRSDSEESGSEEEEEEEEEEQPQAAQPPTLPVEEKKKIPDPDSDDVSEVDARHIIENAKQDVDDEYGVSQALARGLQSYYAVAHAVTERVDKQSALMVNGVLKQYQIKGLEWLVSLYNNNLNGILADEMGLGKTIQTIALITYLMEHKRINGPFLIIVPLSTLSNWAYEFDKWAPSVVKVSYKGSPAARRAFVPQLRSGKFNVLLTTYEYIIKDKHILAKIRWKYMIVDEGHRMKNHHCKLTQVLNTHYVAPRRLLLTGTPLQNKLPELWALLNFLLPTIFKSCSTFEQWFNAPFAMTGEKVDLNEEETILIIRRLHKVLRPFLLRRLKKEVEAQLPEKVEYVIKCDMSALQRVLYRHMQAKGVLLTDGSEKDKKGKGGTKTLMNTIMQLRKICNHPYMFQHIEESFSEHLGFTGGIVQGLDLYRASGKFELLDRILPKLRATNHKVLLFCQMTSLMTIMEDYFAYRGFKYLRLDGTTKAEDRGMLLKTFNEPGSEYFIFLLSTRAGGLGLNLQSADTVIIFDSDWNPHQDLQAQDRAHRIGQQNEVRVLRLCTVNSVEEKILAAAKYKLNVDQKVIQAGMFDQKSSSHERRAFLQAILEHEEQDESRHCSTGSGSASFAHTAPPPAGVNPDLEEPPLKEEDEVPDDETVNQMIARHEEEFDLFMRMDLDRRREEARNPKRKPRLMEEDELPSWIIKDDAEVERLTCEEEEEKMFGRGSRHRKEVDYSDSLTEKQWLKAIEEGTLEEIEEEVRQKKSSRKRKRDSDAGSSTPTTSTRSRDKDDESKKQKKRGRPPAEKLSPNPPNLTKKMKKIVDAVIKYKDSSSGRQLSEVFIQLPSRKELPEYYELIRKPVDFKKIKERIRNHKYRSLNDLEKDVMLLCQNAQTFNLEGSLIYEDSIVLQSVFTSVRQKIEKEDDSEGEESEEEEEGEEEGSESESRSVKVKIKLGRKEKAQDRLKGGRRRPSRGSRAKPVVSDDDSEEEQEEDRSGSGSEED

Molecular target: V5-tagged KIF20A (kinesin family member 20A) (UniProt O95235)
Experiment: affinity purification with mass spectrometry; lysate of MDA-MB-231 cells with V5-tagged KIF20A on anti-V5 beads overnight at 4°C; 50 mM Tris-HCl pH 7.5, 150 mM NaCl, 0.5% NP-40, 10% glycerol; 5 washes; LC-MS/MS, label-free quantitation

binding: binds
Substance: endogenous SMARCA4 (from UniProt P51532 1-1647)
